Library screen at single concentrations

By UniProt entry, the sequences of proteins in these tests, tags left out. Residues count along the entry.
UniProt Q4DA54, 1-478: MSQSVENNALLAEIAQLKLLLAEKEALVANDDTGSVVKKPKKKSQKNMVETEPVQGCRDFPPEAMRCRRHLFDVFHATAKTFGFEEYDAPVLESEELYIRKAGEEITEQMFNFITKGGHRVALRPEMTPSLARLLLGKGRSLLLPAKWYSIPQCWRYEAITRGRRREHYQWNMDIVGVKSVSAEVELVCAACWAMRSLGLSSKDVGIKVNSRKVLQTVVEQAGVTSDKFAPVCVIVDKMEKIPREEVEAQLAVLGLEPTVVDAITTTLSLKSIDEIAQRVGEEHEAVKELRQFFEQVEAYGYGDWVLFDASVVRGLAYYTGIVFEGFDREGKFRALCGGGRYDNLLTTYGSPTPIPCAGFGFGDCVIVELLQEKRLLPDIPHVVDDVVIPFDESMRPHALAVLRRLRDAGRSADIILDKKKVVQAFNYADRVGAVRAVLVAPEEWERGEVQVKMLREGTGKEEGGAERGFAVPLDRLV
UniProt A4I591, 1-473: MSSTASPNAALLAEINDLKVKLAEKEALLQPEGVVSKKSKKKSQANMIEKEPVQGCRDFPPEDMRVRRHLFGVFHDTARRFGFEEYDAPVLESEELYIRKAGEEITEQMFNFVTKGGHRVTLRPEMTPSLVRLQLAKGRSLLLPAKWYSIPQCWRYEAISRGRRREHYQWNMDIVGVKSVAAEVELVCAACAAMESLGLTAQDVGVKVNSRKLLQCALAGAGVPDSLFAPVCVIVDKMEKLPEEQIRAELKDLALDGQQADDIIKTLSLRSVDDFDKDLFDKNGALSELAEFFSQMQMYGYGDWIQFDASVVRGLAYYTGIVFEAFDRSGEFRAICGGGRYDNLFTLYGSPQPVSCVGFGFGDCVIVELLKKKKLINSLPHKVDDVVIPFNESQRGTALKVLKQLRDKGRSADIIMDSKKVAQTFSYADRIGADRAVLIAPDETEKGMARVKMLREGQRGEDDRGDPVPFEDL

TcHisRS: 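Histidine-tRNA ligase, Trypanosoma cruzi CL Brener (UniProt Q4DA54). Enzyme assay of histidyl-tRNA synthetase; the read-out is not stated. Concentration: 30 µM. Higher reads as stronger inhibition (inferred: compounds with an IC50 in retests scored well above the rest). About 69,000 compounds were tested under these conditions; 0.045% (about 31) showed 50% or more at least once.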
LiHisRS: 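Enzyme assay of histidyl-tRNA synthetase; the read-out is not stated. Target: Histidine-tRNA ligase, Leishmania infantum (UniProt A4I591). Compounds at 30 µM. Direction is inferred from retests: higher values go with stronger inhibition. The assay is labelled LdHisRS but filed under L. infantum. Size under these conditions: about 69,000 compounds, about 410 of them at 50% or above in at least one test.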

The filed quantity is “Percent Effect” (%).
The record does not define 0% and 100%; most values in the screen are far below 50% and negative numbers occur (in some assays of this library far below -100).
Compounds were drawn at random from those tested, without regard to their results.

Result for Cc1nccn1-c1cc(CNC(=O)CCNC(=O)C2CCCC2)ccn1 was TcHisRS: 2.273%; LiHisRS: 19.7%. Result for CN(C)CCNC(=O)c1ccc2c(-c3nccs3)noc2c1 was TcHisRS: 3.448%; LiHisRS: 12%. Result for O=C(c1cc2c(s1)CCC2)N1CCCC1Cn1cccn1 (centres undefined) was TcHisRS: 1.734%; LiHisRS: 4.464%. Cc1cc(CN2Cc3ccccc3CC2c2nnc(C)o2)no1 (centres undefined) gave TcHisRS: 9.038%; LiHisRS: 11.5%. Cc1ccc(S(=O)(=O)NC(=O)CCOCc2ccccc2)s1 read TcHisRS: 11.11%; LiHisRS: 12.82%. COc1ccc(CC(=O)N2CCCC(n3cc(C)cn3)C2)cc1F (centres undefined) gave TcHisRS: 2.642%; LiHisRS: 4.054%.

With CC(C)C(=O)NCC(=O)N1CCC2(CC1)c1ccccc1[C@@H](N)[C@@H]2O the screen gave TcHisRS: -0.8696%; LiHisRS: 10%. For CC(C)(C)c1nc(CNc2ccccc2SCCC(N)=O)cs1 the result was TcHisRS: 6.748%; LiHisRS: 9.877%. COc1c(C2CCCN2C(=O)c2ccc3c(c2)OCO3)c(C)nn1C (centres undefined) gave TcHisRS: 5.814%; LiHisRS: 7.143%. CC(C(=O)N1CCOCC1)N1CCc2cncnc2C1 (centres undefined) read TcHisRS: 9.836%; LiHisRS: 13.7%. For CCC(C(=O)NC1(CN2CCOCC2)CCCC1)n1cccn1 (centres undefined) the result was TcHisRS: 3.03%; LiHisRS: 4.444%. For CSC(C)(C)CNC(=O)NCC[S+]([O-])c1ccccc1F (centres undefined) the result was TcHisRS: 6.316%; LiHisRS: -2.74%.

CC(C)NC(=O)[C@H]1C[C@@H]2[C@@H](C1)OCCN2Cc1nccs1 gave TcHisRS: 3.483%; LiHisRS: 25%. OC1(CN2CCCC(Cn3cncn3)C2)CCCCC1 (centres undefined) gave TcHisRS: 3.867%; LiHisRS: 13.54%. CN(CCO)C(=O)Nc1ccn(-c2cccc(C(F)(F)F)c2)n1 gave TcHisRS: 2.941%; LiHisRS: 12.61%. CC(C)C(=O)NCC(=O)NCC1CCN(c2cnn(C)c(=O)c2)CC1 read TcHisRS: -5.102%; LiHisRS: 12.9%. Result for CCCn1cc(C(=O)N2CCCC2(C)c2nc(C)cc(N)n2)cn1 (centres undefined) was TcHisRS: 4.887%; LiHisRS: 0%. CC(=O)N1N=C(c2ccccc2)OC1C(=O)NCCOc1ccccc1 (centres undefined) read TcHisRS: 4.545%; LiHisRS: 0%.

For CSCCC(=O)N(C/C=C/c1ccccc1)CCO the result was TcHisRS: -3.865%; LiHisRS: 14.17%. CCn1cc(Cl)c(C(=O)NCCCN(C)C)n1 gave TcHisRS: 2.609%; LiHisRS: 12.07%. For c1ccc(CNC2CCc3ncnn3C2)nc1 (centres undefined) the result was TcHisRS: 3.817%; LiHisRS: 2.128%. COc1ccc(F)cc1C(=O)N1C[C@H]2C[C@H](OC)C[C@H]2C1 read TcHisRS: 8.812%; LiHisRS: 15.83%. Result for c1ccc(CN2CCN(Cc3cscn3)CC2)cc1 was TcHisRS: -3.396%; LiHisRS: 18.67%. Result for O=C(c1cnccn1)N1CCc2onc(CN3CCOCC3)c2C1 was TcHisRS: 2.762%; LiHisRS: -16.54%.

CNc1nc(C)c(-c2nc(-c3c(C)ncc4c3CCNC4)no2)s1 read TcHisRS: -3.636%; LiHisRS: 7.792%. For CC1=N[C@@]2(CC[C@@H]3CN(C(=O)Nc4ccc(F)cc4)C[C@@H]32)C(=O)N1C the result was TcHisRS: 0.6135%; LiHisRS: 9.877%. Cc1ccoc1C(=O)NC1CCN(Cc2csc3c(F)cccc23)CC1 read TcHisRS: 7.143%; LiHisRS: 21.62%. CCc1nc(CN2CCCN(c3nn4cc(C)nc4s3)CC2)no1 read TcHisRS: 10.7%; LiHisRS: 18.26%. O=C(C1CC1)N1C[C@H]2CNC[C@@]2(C(=O)NCCCc2ccccc2)C1 read TcHisRS: 4.712%; LiHisRS: 7.527%.

Some entries from above, unchanged:

structure,TcHisRS,LiHisRS
Cc1ccc(S(=O)(=O)NC(=O)CCOCc2ccccc2)s1,11.11%,12.82%
CC(C)(C)c1nc(CNc2ccccc2SCCC(N)=O)cs1,6.748%,9.877%

Measurements from “University of Dundee, Small-Polar-MMV Screening Library” (2021), ChEMBL document CHEMBL3988442.